{"sequences": {"note": "Protein sequences, listed by entry. Tags and fused reporters are not part of them.", "UniProt P03135": "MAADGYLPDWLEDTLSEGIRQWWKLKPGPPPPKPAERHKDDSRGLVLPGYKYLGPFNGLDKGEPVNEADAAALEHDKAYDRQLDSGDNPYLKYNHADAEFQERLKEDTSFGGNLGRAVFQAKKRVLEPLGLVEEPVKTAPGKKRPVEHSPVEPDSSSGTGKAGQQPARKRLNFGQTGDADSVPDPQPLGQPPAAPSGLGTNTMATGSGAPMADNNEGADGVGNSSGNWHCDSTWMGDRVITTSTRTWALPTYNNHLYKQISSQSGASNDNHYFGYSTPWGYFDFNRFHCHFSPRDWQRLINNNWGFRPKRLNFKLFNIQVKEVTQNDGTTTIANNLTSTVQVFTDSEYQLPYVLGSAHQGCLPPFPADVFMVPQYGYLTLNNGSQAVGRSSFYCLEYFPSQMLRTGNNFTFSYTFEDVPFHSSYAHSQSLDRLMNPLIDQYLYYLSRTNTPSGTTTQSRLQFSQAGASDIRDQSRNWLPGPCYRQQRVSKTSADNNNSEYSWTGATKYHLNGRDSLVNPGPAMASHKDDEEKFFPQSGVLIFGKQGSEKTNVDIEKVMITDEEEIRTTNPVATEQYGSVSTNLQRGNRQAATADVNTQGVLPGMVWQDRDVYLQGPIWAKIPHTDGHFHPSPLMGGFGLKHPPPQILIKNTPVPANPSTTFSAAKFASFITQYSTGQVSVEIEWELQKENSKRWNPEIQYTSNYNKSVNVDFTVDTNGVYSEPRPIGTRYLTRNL"}, "source": "patent US20230391832A1", "about": "“CO[…]-BINDING POLYPEPTIDES AND METHODS OF USING THE SAME” (Isolere Bio, Inc., priority 2022, published 2023)", "binders": {"B1": {"name": "N-terminal His-tagged polycystic kidney domain 2 (PKD2 domain) from the AAV receptor (receptor)", "chain": "IAIVSPQFQEISLPTTSTVIDGSQSTDDDKIVQYHWEELKGPLREEKISEDTAILKLSKLVPGNYTFSLTVVDSDGATNSTTANLTVNKA"}}, "molecular_target": "AAV2 capsids (adeno-associated virus serotype 2) (UniProt P03135)", "assay": "ELISA on capsids (FIGS. 3A-D)", "note": "These are yes or no findings as the source states them, for the method shown. Some results given as binding are weak or reduced against the parent protein; the word gives no strength. Sequences can lack the tags named with a protein."}
{"binder": "B1", "values": [{"measurement": "binding", "value": "binds"}]}
